# No constants are given. Whether binding was seen depends on the method and setting. Binding seen in cells or lysates may run through a third protein. A result given as binding can be weak or reduced; the word gives no strength. Sequences can lack the tags named with a protein.
# B1: OsGABA-T-HA (enzyme, UniProt Q7XN11 48-516)
# chain: SSVPSPQYNSTEENGFKGHGMLAPFTAGWQSTDVHPLVIERSEGSYVYDIDGKKYLDSLAGLWCTALGGSEPRLVKAATEQLHKLPFYHSFWNRTTKPSLDLAKELLSMFTAREMGKVFFTNSGSEANDSQVKLVWYYNNALGRPDKKKFIARSKSYHGSTLISASLSGLPALHQKFDLPAPFVLHTDCPHYWRFHLPGETEEEFATRLANNLEELILKEGPETIAAFIAEPVMGAGGVIPPPKTYFEKVQAIVKKYDILFIADEVITAFGRLGTMFGSDMYNIKPDLVSMAKALSSAYVPIGAIMVSPEISDVIHSQSNKLGSFAHGFTYSGHPVACAVAIEALKIYQERNIPDHVKQISPRFQEGVKAFAGSPIVGEIRGVGLILGTEFADNKSPNDPFPAEWGVGAIFGAECQKRGMLVRVAGDNIMMSPPLIMTPDEVEELVSIYGDALKATEERVAELKSKKNN
# Target: EG1-eGFP (Rhizoctonia solani AG1-IA)
# Assay: co-IP; co-expression in N. benthamiana leaves, NP-40 lysis buffer, anti-GFP agarose beads, 4°C 8 h, wash 10 mM Tris-HCl pH 7.5, 0.5 mM EDTA, 150 mM NaCl; blot with anti-HA and anti-GFP
binder,measurement,value
B1,binding,binds weakly

# — PMC9037289
